Measurements reported in article PMC12756578.
Results are given in words; binding and its absence hold for the method and conditions named. Binding seen in cells or lysates may run through a third protein. Some entries that bind do so weakly or less than the wild type.

Biological target: RELA (human (endogenous in A549)), Q04206
Experiment: proximity ligation; Duolink In-Situ Red on fixed (2% paraformaldehyde), permeabilised A549 cells; mouse and rabbit antibody pairs against the two endogenous proteins; cells not stimulated or treated with budesonide (300 nM), IL1B (1 ng/mL) or both for 1 h (IL1B 15 min for RELA and IκBα); signal when probes are within 30-40 nm; spots counted in nuclei and outside
Conditions: remark: other sources report otherwise

B1: inhibitor of κBα, P25963 1-317 (protein)
chain: MFQAAERPQEWAMEGPRDGLKKERLLDDRHDSGLDSMKDEEYEQMVKELQEIRLEPQEVPRGSEPWKQQLTEDGDSFLHLAIIHEEKALTMEVIRQVKGDLAFLNFQNNLQQTPLHLAVITNQPEIAEALLGAGCDPELRDFRGNTPLHLACEQGCLASVGVLTQSCTTPHLHSILKATNYNGHTCLHLASIHGYLGIVELLVSLGADVNAQEPCNGRTALHLAVDLQNPDLVSLLLKCGADVNRVTYQGYSPYQLTWGRPSTRIQQQLGQLTLENLQMLPESEDEESYDTESEFTEFTEDELPYDDCVFGGQRLTL
- binding: binds
